Most values lie at the floor of the assay. Slopes are relative: functional sequences can read slightly below zero.
tested on: Saccharomyces cerevisiae PS128 hsf1 delta, HSF1(1-493) fusion; assay: growth estimate (transactivation domain function in HSF1 fusion, heat-shock survival) (a.u. (slope of normalised read count over time)); higher = stronger growth at 37°C, i.e. more transactivation activity; conditions: library: random library

Row | Substance | growth estimate
1 | LSSIHWDGRRPDCLCYKPAG | -0.229
2 | GFHAPHYGVSSNYAARKSYP | -0.171
3 | SAVRLIF | < -0.25
4 | RGTRNWGRDSVT | < -0.25
5 | SLRRWGAVQPGFVNGLIE | < -0.25
6 | FWSPLLDLDPYSK | -0.169
7 | RKHSTTEPGDFRRPRHKISI | < -0.25
8 | EAGPTSQQGLLGR | < -0.25
9 | MCYSSVDDHILHCSCRRDTA | < -0.25
10 | EVGSRVS | -0.25
11 | LIRRRQSSVRNGSIRASSPI | < -0.25
12 | GSVDGILVSIDRGQCVGYVD | < -0.25
13 | VSEFEH | < -0.25
14 | DDGGSECTSIRCLYSTRVFV | < -0.25
15 | CAAVPPDNVLFFGHRP | < -0.25
16 | SFSCVRCRQEAHMEKPRERC | < -0.25
17 | YEYTNMRSRATHN | < -0.25
18 | HRQRRR | < -0.25
19 | ASYILSAL | < -0.25
20 | YGSYVRPIPSRGSSMKCMPT | < -0.25
21 | GGAEGHSRLSAYGIRSRVIR | < -0.25
22 | GYESHLMSIFGRYEGQVATY | < -0.25
23 | SSSRPSIINYWNVSHSCSPP | < -0.25
24 | LSHHGLLPTVAGLPSLIGLT | < -0.25
25 | SGRGSIACLQSTSESGYRR | < -0.25

Row | Substance | growth estimate
26 | GVIGVPRGRMVRSLPVTVQL | < -0.25
27 | FWGCDQGVYELYRHVR | -0.234
28 | GSAGAFTRKPRS | < -0.25
29 | AVSGATKEL | < -0.25
30 | VGICFLQNGPGTLVKNRAAA | < -0.25
31 | RVEQSSKPRSASIEGPIDCN | < -0.25
32 | PLMRVSYSRHSKESAYVLFL | < -0.25
33 | AIYRCLSNCVPVHIDLGRHD | < -0.25
34 | IQLHHTTYNWGVPLRGLYKQ | < -0.25
35 | SGSDCDAGARAARRV | < -0.25
36 | SAFRLIFPFRRKRMYRGVIT | -0.246
37 | HKRSGSPLSETEKGLGTKAG | < -0.25
38 | GRVETTR | < -0.25
39 | KPLGFMRYQGHDP | < -0.25
40 | RVRKLLKCCPASDFGRTFRG | < -0.25
41 | HKSILLYCLLYMRFW | < -0.25
42 | AHVGRS | < -0.25
43 | GVYLLNPGSRCWPTATGCSL | < -0.25
44 | IMVNEIFTHAPFVELSECSP | < -0.25
45 | CTRLVLDKKYFRAPLLIPNP | < -0.25
46 | ASTAGSESGKLPRSGIHYGS | < -0.25
47 | AGYPHLL | < -0.25
48 | QEDKGRTPVSGPRSDPAHRV | < -0.25
49 | VIDQSLGE | < -0.25
50 | FAEFYGRVRVGTGLDVETPA | -0.135

Row | Substance | growth estimate
51 | YPYIITAPYLGGVRH | < -0.25
52 | CRGHGLVPVRWLCRRW | < -0.25
53 | CNMSGTS | < -0.25
54 | RELLAKWLKVRRA | < -0.25
55 | GPSTPAFTSVRIATSTCQLL | < -0.25
56 | SFGHLVA | < -0.25
57 | WVGCSEHNCRSRICRAFLVP | < -0.25
58 | TANHELTIGAPSSFGVKRSV | < -0.25
59 | PVVCFTRLMYAPVNRGKLVH | < -0.25
60 | RLSSRILPGSLVGLAHSSVI | < -0.25
61 | SFLYAAEVIFADVRYALRVW | < -0.25
62 | YLLVKYLGHP | < -0.25
63 | HSQPLQDNCVDRNSCFAQRG | < -0.25
64 | DKQKPGETYMRGVTGGAIER | < -0.25
65 | GLALPQGCSVCFNAAGRRV | < -0.25
66 | LLSRKGD | < -0.25
67 | GAVRTADSVITDRLLHS | < -0.25
68 | MSF | < -0.25
69 | RQTAMSMWLIARLK | < -0.25
70 | GNNCVMQLDSFVILSARLCS | < -0.25
71 | LVLLWTALERAFKDIQRLAR | < -0.25
72 | YLISSQSHCLRLFQQRTT | < -0.25
73 | TTAQGSRSCHTVPRSRLWLE | < -0.25
74 | VRLEARYVVPLRLV | < -0.25
75 | PDGSRRHACSPPQSCSYRPL | < -0.25

Row | Substance | growth estimate
76 | WDMSSAY | < -0.25
77 | GPSFIDSASPVCLISHPVGP | < -0.25
78 | ISQTISGSVL | < -0.25
79 | WSESRTGDILESPCH | < -0.25
80 | SASHSYLLYFSLMFLERSDR | < -0.253
81 | LQRGTCRTSRNPA | < -0.25
82 | AWLVR | < -0.25
83 | TPRAQ | < -0.25
84 | YGDSERVDVVVEI | < -0.25
85 | YWERMSHRPLKKNRGARSVP | < -0.25
86 | YVW | < -0.25
87 | DFA | < -0.25
88 | YAYGTVGNAPRRGSRFSGIG | < -0.25
89 | EVIGGPKVFH | < -0.25
90 | FFTSPDLICPQFAGCPYVPN | -0.245
91 | KNCLSCCRQNFFVKVMPQSI | < -0.25
92 | RVPQAGARLSPGPCVYWGRC | < -0.25
93 | IQSLS | < -0.25
94 | IGRWG | < -0.25
95 | VKF | < -0.25
96 | VCYWGFRVVNLALKPD | < -0.25
97 | GVGKRVRPMCPRWPGSYSG | < -0.25
98 | SYLASMSVLVFHKHWALVDR | < -0.25
99 | GLYPTGENETQCQTRSSYFV | < -0.25
100 | SKVWGRLAPHGAPKYIGCAL | < -0.25

Row | Substance | growth estimate
101 | TNTGAVIRNAEKAPPWDARN | < -0.25
102 | NPYR | < -0.25
103 | NIREWNPRSN | -0.248
104 | PGLRGWFSRGNYVCRVQFFP | < -0.25
105 | AIRVWFISAERSCSERPEQP | < -0.25
106 | GGMTWGV | < -0.25
107 | YLVFLSHDTNYRETGGEHLI | < -0.25
108 | ELWGVQFPGFWNVGHARYLS | < -0.25
109 | VTDRADKLS | < -0.25
110 | RKAENSLRTWESSGCFPYYE | < -0.25
111 | VPCELLVLGSWVLVADIVLD | < -0.25
112 | AYLPLFLRDTSQKHITCVID | < -0.25
113 | QSVADRS | < -0.25
114 | GRVWRIKKARSGGGGVITVY | < -0.25
115 | GDPKMSSPHT | < -0.25
116 | YPIRTVSTEASQYVLARFPD | < -0.25
117 | SGADCLCDRVSRSTGRGSHV | < -0.25
118 | SQAKVILLM | < -0.25
119 | SLVYFWSECNQVLHHIP | < -0.25
120 | GPGRP | < -0.25
121 | VLGSYLIHQRTRLTSITSTR | < -0.25
122 | LRCLSIKRMI | < -0.25
123 | KLGDYMVKPTGDPSRAHSAV | < -0.25
124 | AYGHLIGRYGFLCYPNGGGP | < -0.25
125 | LNSIVVGEQETIRTRA | < -0.25

Row | Substance | growth estimate
126 | PVGVH | < -0.25
127 | SFHWKLMPWCLGLVCFQPSA | 0.0112
128 | AVQKFVRPGKGNGIATSLLE | < -0.25
129 | ETVSQYMNSFEALKV | < -0.25
130 | GADQNRGSLLKSGLQFSRIE | < -0.25
131 | GLRFCLLCSKLSEEPPSFI | < -0.25
132 | RPSSERISRREHKGHGGKRP | < -0.25
133 | RGIRVIPLAM | < -0.25
134 | GATRIGLALYSFNFMRFLRK | < -0.25
135 | MPLLPRGDARTSRDSSKVCS | < -0.25
136 | RLRLSPPQGRYRRQPRLGSA | < -0.25
137 | VRPGCLKVRSGKLKPIIWAY | < -0.25
138 | DAVK | < -0.25
139 | RIIGLRRKSPGLFS | < -0.25
140 | GIVTIIRRRCLPKSGTTRVG | < -0.25
141 | LPRDHQKSSDQRASICCGSA | < -0.25
142 | VTEVKVPSRLESL | < -0.25
143 | PHLW | < -0.25
144 | VYCLRALQSTDSWTEARIRA | < -0.25
145 | STEERSGLQESCIQVFLT | < -0.25
146 | HLVSHA | < -0.25
147 | HLASNIPMH | < -0.25
148 | HSTSRSGVWFPAEWA | < -0.25
149 | AIGSNMGPVVQWPIHYARRY | < -0.25
150 | QRLEIRLCIMYNG | < -0.25

In a second layout: results already given.
Row	Substance	growth estimate
93	IQSLS	< -0.25
94	IGRWG	< -0.25
95	VKF	< -0.25
96	VCYWGFRVVNLALKPD	< -0.25
97	GVGKRVRPMCPRWPGSYSG	< -0.25
98	SYLASMSVLVFHKHWALVDR	< -0.25
99	GLYPTGENETQCQTRSSYFV	< -0.25
100	SKVWGRLAPHGAPKYIGCAL	< -0.25
101	TNTGAVIRNAEKAPPWDARN	< -0.25
102	NPYR	< -0.25
103	NIREWNPRSN	-0.248
104	PGLRGWFSRGNYVCRVQFFP	< -0.25
105	AIRVWFISAERSCSERPEQP	< -0.25
106	GGMTWGV	< -0.25
107	YLVFLSHDTNYRETGGEHLI	< -0.25
108	ELWGVQFPGFWNVGHARYLS	< -0.25
109	VTDRADKLS	< -0.25
110	RKAENSLRTWESSGCFPYYE	< -0.25
111	VPCELLVLGSWVLVADIVLD	< -0.25
112	AYLPLFLRDTSQKHITCVID	< -0.25
113	QSVADRS	< -0.25
114	GRVWRIKKARSGGGGVITVY	< -0.25
115	GDPKMSSPHT	< -0.25
116	YPIRTVSTEASQYVLARFPD	< -0.25
117	SGADCLCDRVSRSTGRGSHV	< -0.25
118	SQAKVILLM	< -0.25
119	SLVYFWSECNQVLHHIP	< -0.25
120	GPGRP	< -0.25
121	VLGSYLIHQRTRLTSITSTR	< -0.25
122	LRCLSIKRMI	< -0.25
123	KLGDYMVKPTGDPSRAHSAV	< -0.25
124	AYGHLIGRYGFLCYPNGGGP	< -0.25
125	LNSIVVGEQETIRTRA	< -0.25
126	PVGVH	< -0.25
127	SFHWKLMPWCLGLVCFQPSA	0.0112
128	AVQKFVRPGKGNGIATSLLE	< -0.25
129	ETVSQYMNSFEALKV	< -0.25
130	GADQNRGSLLKSGLQFSRIE	< -0.25
131	GLRFCLLCSKLSEEPPSFI	< -0.25
132	RPSSERISRREHKGHGGKRP	< -0.25
133	RGIRVIPLAM	< -0.25
134	GATRIGLALYSFNFMRFLRK	< -0.25
135	MPLLPRGDARTSRDSSKVCS	< -0.25
136	RLRLSPPQGRYRRQPRLGSA	< -0.25
137	VRPGCLKVRSGKLKPIIWAY	< -0.25
138	DAVK	< -0.25
139	RIIGLRRKSPGLFS	< -0.25
140	GIVTIIRRRCLPKSGTTRVG	< -0.25
141	LPRDHQKSSDQRASICCGSA	< -0.25
142	VTEVKVPSRLESL	< -0.25
143	PHLW	< -0.25
144	VYCLRALQSTDSWTEARIRA	< -0.25
145	STEERSGLQESCIQVFLT	< -0.25
146	HLVSHA	< -0.25
147	HLASNIPMH	< -0.25
148	HSTSRSGVWFPAEWA	< -0.25

Shown field by field: part of the list above
SLRRWGAVQPGFVNGLIE
  growth estimate: < -0.25
SGSDCDAGARAARRV
  growth estimate: < -0.25
IQSLS
  growth estimate: < -0.25
ETVSQYMNSFEALKV
  growth estimate: < -0.25

Going on with the list:

Row | Substance | growth estimate
151 | FKGGRGFL | < -0.25
152 | ERPLVVEGVD | < -0.25
153 | TSDELCRRNGKCFARLSAYV | < -0.25
154 | LNADI | < -0.25
155 | HLMRSHCDNGGTRTPWCLRS | < -0.25
156 | ILAISLRVSRGKRRSPFGEW | < -0.25
157 | VWGDRDGYWWDVL | 0.146
158 | IPGHPGQNVK | < -0.25
159 | GRRRLNARVGVQVCLLSSRL | < -0.25
160 | VGTIV | < -0.25
161 | YRCAQKIVP | < -0.25
162 | SHKWTGYEIILHGIRRCVGR | < -0.25
163 | HIACAAIIAHISLGQLAGSA | < -0.25
164 | GMRCVDFTGLHPGDRVFHSY | < -0.25
165 | VNWAT | < -0.25
166 | REYSTSS | < -0.25
167 | VLGPAQRFMVLLDRFEHAPS | < -0.25
168 | QIGPHERLATTF | < -0.25
169 | RCSINT | < -0.25
170 | SADCSLYQGLGAIRKLIRTG | < -0.25
171 | PSHLTLSLRAVAWLLAVMRV | < -0.25
172 | KCDHASPAHQG | < -0.25
173 | VNSYLWTFPVSFRPGSQVDG | < -0.25
174 | VRPGMKS | < -0.25
175 | QFRLRGVSAYGNTSRVGAGT | < -0.25

Row | Substance | growth estimate
176 | GERTNRLAGASSPVGGEW | < -0.25
177 | ADKTYGNAGLRRLGSVAKL | < -0.25
178 | PSYSHRALGQGRATPRRVAR | < -0.25
179 | DVRACYVLRELSFEALVPRL | < -0.25
180 | PPVLTVDD | < -0.25
181 | QLGPDVTSETVVM | < -0.25
182 | QEDTLDFIPVPGLTKGGRAS | < -0.25
183 | HNQSRGEEHLYAGAIRSRLL | < -0.25
184 | VPLDAPLVRR | < -0.25
185 | TRVYEARLRGPTSKSSLSPG | < -0.25
186 | RKYPYFTTSFRIRPK | < -0.25
187 | IGFLGENIPSVDPIGEENRD | < -0.25
188 | GPPVQKEGQEDRG | < -0.25
189 | GDLMEARHTW | < -0.25
190 | TAMVSQLVG | < -0.25
191 | TQVGRRDDNVRVEVVSVAVF | < -0.25
192 | LLSVCIFTGAHGSGRIHPVS | < -0.25
193 | LIDVPIRCQYAHASRGLFCA | < -0.25
194 | QTEGVDLLNRFLVVTSGRRT | < -0.25
195 | SIGV | < -0.25
